Measured values: PubChem BioAssay AID2685 (National Center for Advancing Translational Sciences (NCATS), 2010)
The list shows a part of the results. Shown are side measurements of this screen, not its main read-out; they come without a call. The list favours compounds with an active or inconclusive main result. Words in brackets tell the shape of the fitted curve; partial curves, single points and poor fits give uncertain potencies.

Assay: qHTS Assay for Lipid Storage Modulators in Drosophila S3 Cells;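 on cell number change: cells counted by Cell Tracker Red CMTPX staining in the red channel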
Settings: BODIPY lipid droplet fluorescence, 18-24 h; for cell number change: measured here: cell count max response, cells fed with added oleic acid
In short: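 Drosophila S3 cells got compounds at several concentrations plus oleic acid (400 uM solution). Laser-scanning cytometry with 488 nm excitation read lipid droplets at 500-530 nm and cells at 575-640 nm. Percent activity was relative to 20 uM Triacsin C.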

[1] = measured here: lipid fluorescence (Fed channel) AC50, cells fed with added oleic acid
[2] = measured here: cell number channel AC50, cells fed with added oleic acid

Row | Compound | cell number change [%] | AC50 [1] | AC50 [2]
1 | O=c1[nH]c(=O)n(C2CCCCC2)c(O)c1/C=N/N1CCCCC1c1cccnc1 (centres undefined) | 22.2 | 13 µM [rising, partial curve, poor fit] | –
2 | COc1ccc(/C=C2/C(=O)NC(=O)N(Cc3ccco3)C2=O)cc1 | -4.35 | 6.51 µM [falling, single point] | –
3 | CC(C)CC12CN3CCN(CC(C3)C1O)C2 (centres undefined) | -0.264 | – | –
4 | CCOc1cc2c(cc1OCC)-n1cccc1C(c1ccc(F)c(OC)c1)NC2 (centres undefined) | -23.2 | 29.1 µM [falling, single point] | –
5 | Cc1ccc(-n2c(C)nc3cc(Cl)ccc3c2=O)nc1 | 20.4 | – | –
6 | CCOc1cccc(=NC2CCCCC2)c2c(C)[nH]c(C)c12 | -63.6 | 13 µM [falling, partial curve] | 29.1 µM [falling, single point]
7 | CCCCC(=O)N/N=C/c1c(O)n(CC)c(=S)n(CC)c1=O | -17.2 | 29.1 µM [falling, partial curve, poor fit] | –
8 | COC(=O)c1nc(-c2ccc3c(n2)C(=O)C(N)=C(OC)C3=O)c(N)c(-c2ccc(OC)c(OC)c2O)c1C | -44 | 9.2 µM [falling, partial curve] | 29.1 µM [falling, single point]
9 | CCCCCCC(N)CC(=O)O (centres undefined) | 6.72 | 29.1 µM [falling, single point] | –
10 | COc1ccc(CNCCc2ccccc2F)c(OC)c1C | 13.7 | 1.3 µM [rising, full curve] | –
11 | CCCCn1c(O)c(C(CC)=Nc2ccc(OCC)cc2)c(=O)[nH]c1=O | 6.56 | – | –
12 | C/C(=N\N1CCCCCC1)c1c(O)n(-c2ccc(C)cc2)c(=O)[nH]c1=O | -2.23 | – | 4.11 µM [rising, single point]
13 | C=CCn1c(O)c(C(C)=Nc2cccc(C(F)(F)F)c2)c(=O)[nH]c1=O | -16.2 | 0.146 µM [falling, full curve, poor fit] | –
14 | CCOC(=O)c1c(C)n(Cc2ccccc2)c2ccc(OCC(O)Cn3nc(C)cc3C)cc12 (centres undefined) | 19.2 | 6.51 µM [rising, single point] | –
15 | CC(C)Oc1cc(-n2c(=S)[nH]c3ccccc3c2=O)c(Cl)cc1Cl | 10.1 | 29.1 µM [falling, single point] | –
16 | O=C(C(=O)N1CCOCC1)c1cn(Cc2ccccc2F)c2ccccc12 | 1.08 | 1.46 µM [rising, full curve, poor fit] | 6.51 µM [rising, single point]
17 | Cn1c(=O)oc2cc(S(=O)(=O)N3CCc4ccccc4C3)ccc21 | – | – | 0.146 µM [rising, full curve, poor fit]
18 | C[C@]12CC[C@H](O)C[C@H]1CC[C@@H]1C2CC[C@]2(C)[C@@H](C3=CC(=O)OC3)[C@@H](O)C[C@]12O (some centres undefined) | -2.65 | 0.58 µM [rising, single point] | –
19 | COc1ccc(N=Cc2c(O)n(C)c(=O)n(C)c2=O)cc1 | – | 5.8 µM [rising, partial curve, poor fit] | –
20 | Clc1ccc(CSC(Cn2ccnc2)c2ccc(Cl)cc2Cl)cc1 (centres undefined) | -73.4 | 29.1 µM [falling, single point] | 29.1 µM [falling, partial curve, poor fit]
21 | COC(=O)C1=C(c2c(C)noc2C)C[C@@H]2CC[C@H]1N2C(=O)N1CCC(C)CC1 | -3.39 | 0.116 µM [rising, partial curve, poor fit] | –
22 | CC(C)CN1CCN(Cc2cccc3c2OCO3)CC1CCO (centres undefined) | 16.6 | 9.2 µM [rising, partial curve, poor fit] | –
23 | O=C(N/N=C/c1c(O)n(Cc2ccco2)c(=O)[nH]c1=O)c1ccccc1O | -38.9 | 8.2 µM [falling, partial curve] | 10.3 µM [falling, partial curve, poor fit]
24 | Cc1ccc(NC2=NCCCS2)c(C)c1C | 2.67 | – | 0.82 µM [falling, full curve]
25 | CC(=O)c1cc(C#N)c(N2CCN(C)CC2)nc1C | – | 0.58 µM [rising, single point] | –
26 | CN1CCN(c2ccc([N+](=O)[O-])c3no[n+]([O-])c23)CC1 | -42.3 | 5.8 µM [falling, full curve, poor fit] | 10.3 µM [falling, partial curve]
27 | CC1CN=C(NC(C)c2ccccc2)S1 (centres undefined) | 1.59 | 2.59 µM [falling, single point] | 2.06 µM [falling, single point]
28 | COC(=O)C1=C(c2ccc(OC(F)(F)F)cc2)C[C@@H]2CC[C@H]1N2C(=O)NCCc1ccccc1 | -21.9 | 0.651 µM [rising, partial curve, poor fit] | –
29 | O=C(Cc1ccccc1)OCCN1CCCCC1 | -3.72 | 0.116 µM [falling, full curve, poor fit] | –

Fetched by compound from the list above, 2 records:
Row | Compound | cell number change [%] | AC50 [1] | AC50 [2]
7 | CCCCC(=O)N/N=C/c1c(O)n(CC)c(=S)n(CC)c1=O | -17.2 | 29.1 µM [falling, partial curve, poor fit] | –
17 | Cn1c(=O)oc2cc(S(=O)(=O)N3CCc4ccccc4C3)ccc21 | – | – | 0.146 µM [rising, full curve, poor fit]
